Experimental findings from patent EP2958933B1, “CROSSLINKED PEPTIDE HYDROGELS” (Agency for Science, Technology and Research, priority 2013, dated 2018) are described below.

A short description of this data set: Purification of gels by regular water change (removal of unreacted H2O2 and residual acid). Conditions: for H2O2 removed: gel cast in 48-well plate with 0.06% H2O2, water replaced regularly.

“LIVAGKC [LK6C, cross-linkable peptide, LK6 modified with a cysteine residue at the C-terminus; forms hydrogels]”: the H2O2 removed (after 4 hrs) is given as above 96% and the H2O2 removed (after 7 hrs) was above 99%. Where the note is “water replaced regularly, after 8 hrs”, this substance returned a residual acid removed above 85%.
